# In the supplement of paper PMC8728848:
# The other results are listed elsewhere or left out.
# Tests used:
# Test in all cases: glycan array binding signal (z-score within array); higher = stronger binding
# Conditions in all cases: glycan notation: IUPAC condensed, linker removed
# [1] = target: Neu5Ac(a2-3)Gal(b1-3)[Fuc(a1-4)]GlcNAc(b1-3)Gal(b1-3)[Fuc(a1-4)]GlcNAc
# How it was run: (§1)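 Glycan array binding is given as a within-array Z-score, which can be read as non-binding when negative. The arrays, 3228 of them, came from the Consortium for Functional Glycomics database and were retained only where the protein sequence was available. Z-scores were averaged across arrays of the same protein sequence at different concentrations or buffers and across linkers.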
# [2] = target: Neu5Ac(a2-3)Gal(b1-3)[Fuc(a1-4)]GlcNAc(b1-3)Gal(b1-4)[Fuc(a1-3)]GlcNAc
# How it was run: as §1
# [3] = target: Neu5Ac(a2-3)Gal(b1-3)[Neu5Ac(a2-3)Gal(b1-4)]GlcNAc
# How it was run: as §1
# [4] = target: Neu5Ac(a2-3)Gal(b1-3)[Neu5Ac(a2-6)]GalNAc
# How it was run: as §1
# [5] = target: Neu5Ac(a2-3)Gal(b1-4)Glc
# How it was run: as §1
# [6] = target: Neu5Ac(a2-3)Gal(b1-4)GlcNAc
# How it was run: as §1
# [7] = target: Neu5Ac(a2-3)Gal(b1-4)GlcNAc(b1-2)Man(a1-3)[GlcNAc(b1-2)Man(b1-4)GlcNAc(b1-2)Man(a1-6)]Man(b1-4)GlcNAc(b1-4)GlcNAc
# How it was run: as §1
# [8] = target: Neu5Ac(a2-3)Gal(b1-4)GlcNAc(b1-2)Man(a1-3)[Neu5Ac(a2-6)Gal(b1-4)GlcNAc(b1-2)Man(a1-6)]Man(b1-4)GlcNAc(b1-4)GlcNAc
# How it was run: as §1
# [9] = target: Neu5Ac(a2-3)Gal(b1-4)GlcNAc(b1-3)Gal
# How it was run: as §1
# [10] = target: Neu5Ac(a2-3)Gal(b1-4)GlcNAc(b1-3)Gal(b1-3)GlcNAc
# How it was run: as §1
# [11] = target: Neu5Ac(a2-3)Gal(b1-4)GlcNAc(b1-3)Gal(b1-4)GlcNAc
# How it was run: as §1
# [12] = target: Neu5Ac(a2-3)Gal(b1-4)GlcNAc(b1-3)Gal(b1-4)GlcNAc(b1-3)Gal(b1-4)GlcNAc
# How it was run: as §1
# [13] = target: Neu5Ac(a2-3)Gal(b1-4)GlcNAc(b1-3)Gal(b1-4)[Fuc(a1-3)]GlcNAc
# How it was run: as §1
# [14] = target: Neu5Ac(a2-3)Gal(b1-4)GlcNAc(b1-3)GalNAc
# How it was run: as §1
# [15] = target: Neu5Ac(a2-3)Gal(b1-4)GlcNAc(b1-6)[Gal(b1-3)]GalNAc
# How it was run: as §1
# [16] = target: Neu5Ac(a2-3)Gal(b1-4)GlcNAc(b1-6)[Neu5Ac(a2-3)Gal(b1-3)]GalNAc
# How it was run: as §1
# [17] = target: Neu5Ac(a2-3)Gal(b1-4)GlcNAc6S
# How it was run: as §1
# [18] = target: Neu5Ac(a2-3)Gal(b1-4)[Fuc(a1-3)]GlcNAc
# How it was run: as §1
# [19] = target: Neu5Ac(a2-3)Gal(b1-4)[Fuc(a1-3)]GlcNAc(b1-3)Gal
# How it was run: as §1
# [20] = target: Neu5Ac(a2-3)Gal(b1-4)[Fuc(a1-3)]GlcNAc(b1-3)Gal(b1-4)GlcNAc
# How it was run: as §1
# [21] = target: Neu5Ac(a2-3)Gal(b1-4)[Fuc(a1-3)]GlcNAc(b1-3)Gal(b1-4)[Fuc(a1-3)]GlcNAc(b1-3)Gal(b1-4)[Fuc(a1-3)]GlcNAc
# How it was run: as §1
# [22] = target: Neu5Ac(a2-3)Gal(b1-4)[Fuc(a1-3)]GlcNAc(b1-3)GalNAc
# How it was run: as §1
# [23] = target: Neu5Ac(a2-3)Gal(b1-4)[Fuc(a1-3)]GlcNAc(b1-6)[Gal(b1-3)]GalNAc
# How it was run: as §1
# [24] = target: Neu5Ac(a2-3)Gal(b1-4)[Fuc(a1-3)]GlcNAc6S
# How it was run: as §1
# [25] = target: Neu5Ac(a2-3)Gal6S(b1-4)GlcNAc
# How it was run: as §1
# [26] = target: Neu5Ac(a2-3)Gal6S(b1-4)[Fuc(a1-3)]GlcNAc
# How it was run: as §1
# [27] = target: Neu5Ac(a2-3)GalNAc
# How it was run: as §1
# [28] = target: Neu5Ac(a2-3)GalNAc(b1-4)GlcNAc
# How it was run: as §1
# [29] = target: Neu5Ac(a2-3)[GalNAc(b1-4)]Gal(b1-4)Glc
# How it was run: as §1
# [30] = target: Neu5Ac(a2-3)[GalNAc(b1-4)]Gal(b1-4)GlcNAc
# How it was run: as §1
# [31] = target: Neu5Ac(a2-3)[GalNAc(b1-4)]Gal(b1-4)GlcNAc(b1-3)GalNAc
# How it was run: as §1
# [32] = target: Neu5Ac(a2-3)[Neu5Ac(a2-6)]GalNAc
# How it was run: as §1
# [33] = target: Neu5Ac(a2-6)Gal
# How it was run: as §1
# [34] = target: Neu5Ac(a2-6)Gal(b1-3)GlcNAc(b1-3)[Gal(b1-4)GlcNAc(b1-6)]Gal(b1-4)Glc
# How it was run: as §1
# [35] = target: Neu5Ac(a2-6)Gal(b1-4)Glc
# How it was run: as §1
# [36] = target: Neu5Ac(a2-6)Gal(b1-4)GlcNAc
# How it was run: as §1
# [37] = target: Neu5Ac(a2-6)Gal(b1-4)GlcNAc(b1-2)Man(a1-3)Man(b1-4)GlcNAc(b1-4)GlcNAc
# How it was run: as §1
# [38] = target: Neu5Ac(a2-6)Gal(b1-4)GlcNAc(b1-2)Man(a1-3)[Gal(b1-4)GlcNAc(b1-2)Man(a1-6)]Man(b1-4)GlcNAc(b1-4)GlcNAc
# How it was run: as §1
binder,measurement,setting,value
"Intelectin 1 (Homo sapiens), Q8WWA0 (protein) MNQLSFLLFLIATTRGWSTDEANTYFKEWTCSSSPSLPRSCKEIKDECPSAFDGLYFLRTENGVIYQTFCDMTSGGGGWTLVASVHENDMRGKCTVGDRWSSQQGSKAVYPEGDGNWANYNTFGSAEAATSDDYKNPGYYDIQAKDLGIWHVPNKSPMQHWRNSSLLRYRTDTGFLQTLGHNLFGIYQKYPVKYGEGKCWTDNGPVIPVVYDFGDAQKTASYYSPYGQREFTAGFVQFRVFNNERAANALCAGMRVTGCNTEHHCIGGGGYFPEASPQQCGDFSGFDWSGYGTHVGYSSSREITEAAVLLFYR",glycan array binding signal (z-score),[1],-0.641
same,glycan array binding signal (z-score),[2],-0.779
same,glycan array binding signal (z-score),[3],-0.157
same,glycan array binding signal (z-score),[4],-0.094
same,glycan array binding signal (z-score),[5],-0.534
same,glycan array binding signal (z-score),[6],0.239
same,glycan array binding signal (z-score),[7],-0.161
same,glycan array binding signal (z-score),[8],0.053
same,glycan array binding signal (z-score),[9],-0.508
same,glycan array binding signal (z-score),[10],-0.324
same,glycan array binding signal (z-score),[11],-0.554
same,glycan array binding signal (z-score),[12],-0.177
same,glycan array binding signal (z-score),[13],0.691
same,glycan array binding signal (z-score),[14],-0.216
same,glycan array binding signal (z-score),[15],0.281
same,glycan array binding signal (z-score),[16],-0.416
same,glycan array binding signal (z-score),[17],0.039
same,glycan array binding signal (z-score),[18],-1.07
same,glycan array binding signal (z-score),[19],-0.21
same,glycan array binding signal (z-score),[20],1.27
same,glycan array binding signal (z-score),[21],-0.349
same,glycan array binding signal (z-score),[22],0.108
same,glycan array binding signal (z-score),[23],1.07
same,glycan array binding signal (z-score),[24],-0.05
same,glycan array binding signal (z-score),[25],-0.326
same,glycan array binding signal (z-score),[26],-0.264
same,glycan array binding signal (z-score),[27],-0.268
same,glycan array binding signal (z-score),[28],0.042
same,glycan array binding signal (z-score),[29],0
same,glycan array binding signal (z-score),[30],-0.14
same,glycan array binding signal (z-score),[31],-0.316
same,glycan array binding signal (z-score),[32],-0.046
same,glycan array binding signal (z-score),[33],-0.004
same,glycan array binding signal (z-score),[34],-0.516
same,glycan array binding signal (z-score),[35],-0.257
same,glycan array binding signal (z-score),[36],0.519
same,glycan array binding signal (z-score),[37],-0.275
same,glycan array binding signal (z-score),[38],0.365
